According to paper doi:10.1101/2025.09.29.679124 (bioRxiv, 2025):
These are yes or no findings as the source states them, for the method shown. Some entries that bind do so weakly or less than the wild type. Sequences can lack the tags named with a protein.

By UniProt entry, the sequences of proteins in these tests, tags left out. Where a name states a change or a piece, a line headed by the entry shows the natural chain unless it says otherwise.
UniProt Q5VMP0: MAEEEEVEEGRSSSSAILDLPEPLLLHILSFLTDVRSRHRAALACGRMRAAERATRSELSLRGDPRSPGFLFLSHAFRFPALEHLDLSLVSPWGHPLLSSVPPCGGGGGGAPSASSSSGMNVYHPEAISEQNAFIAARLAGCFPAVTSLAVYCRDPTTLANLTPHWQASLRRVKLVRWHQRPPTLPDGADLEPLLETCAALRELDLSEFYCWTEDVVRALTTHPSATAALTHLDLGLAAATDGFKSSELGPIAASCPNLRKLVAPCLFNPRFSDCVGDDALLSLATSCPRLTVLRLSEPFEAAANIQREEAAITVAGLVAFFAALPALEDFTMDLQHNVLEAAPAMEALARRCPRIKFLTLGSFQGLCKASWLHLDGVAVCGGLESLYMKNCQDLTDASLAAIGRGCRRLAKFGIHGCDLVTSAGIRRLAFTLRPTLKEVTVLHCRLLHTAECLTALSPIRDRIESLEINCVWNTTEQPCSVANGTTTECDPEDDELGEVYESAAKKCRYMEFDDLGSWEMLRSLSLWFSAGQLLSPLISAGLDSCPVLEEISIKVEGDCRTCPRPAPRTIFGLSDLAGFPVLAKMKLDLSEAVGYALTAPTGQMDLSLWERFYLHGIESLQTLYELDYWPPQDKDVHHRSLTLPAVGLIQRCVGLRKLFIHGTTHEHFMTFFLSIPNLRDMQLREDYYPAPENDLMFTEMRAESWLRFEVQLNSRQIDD
UniProt Q39255: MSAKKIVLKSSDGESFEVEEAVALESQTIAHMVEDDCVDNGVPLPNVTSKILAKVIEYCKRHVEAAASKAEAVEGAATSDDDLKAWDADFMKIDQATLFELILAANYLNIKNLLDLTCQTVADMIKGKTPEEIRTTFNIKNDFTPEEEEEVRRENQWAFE

Assays:
Experiment in all cases: pull-down
[1] = molecular target: T1, MBP-His-D53-D2 (718-1131) (rice (Oryza sativa)) (UniProt Q2RBP2)
T1 sequence: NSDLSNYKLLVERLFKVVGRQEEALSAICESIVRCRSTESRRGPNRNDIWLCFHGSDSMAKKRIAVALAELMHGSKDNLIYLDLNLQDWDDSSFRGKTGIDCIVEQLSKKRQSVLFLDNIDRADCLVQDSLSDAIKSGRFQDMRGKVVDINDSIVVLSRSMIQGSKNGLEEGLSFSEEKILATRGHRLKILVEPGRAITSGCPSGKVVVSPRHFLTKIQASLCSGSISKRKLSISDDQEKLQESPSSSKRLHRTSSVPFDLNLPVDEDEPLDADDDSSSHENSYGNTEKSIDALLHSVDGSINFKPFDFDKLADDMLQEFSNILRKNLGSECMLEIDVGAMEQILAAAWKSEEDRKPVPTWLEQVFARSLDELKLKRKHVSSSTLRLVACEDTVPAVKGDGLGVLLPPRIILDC

[2] = molecular target: T2, MBP-His-D53-D1M (182-510) (rice (Oryza sativa)) (UniProt Q2RBP2)
T2 sequence: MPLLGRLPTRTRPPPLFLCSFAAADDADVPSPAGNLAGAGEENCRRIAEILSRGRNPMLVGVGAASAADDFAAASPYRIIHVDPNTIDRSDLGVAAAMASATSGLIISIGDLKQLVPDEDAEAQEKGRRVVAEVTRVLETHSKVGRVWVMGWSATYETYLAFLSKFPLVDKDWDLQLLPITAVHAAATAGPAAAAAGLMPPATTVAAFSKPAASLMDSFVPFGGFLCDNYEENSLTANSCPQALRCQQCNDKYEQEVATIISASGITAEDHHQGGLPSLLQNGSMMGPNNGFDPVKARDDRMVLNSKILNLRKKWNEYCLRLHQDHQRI

[3] = molecular target: MBP-tagged D3 (2-720) co-expressed with untagged ASK1 (rice (Oryza sativa) | Arabidopsis) (UniProt Q5VMP0+Q39255)

- binding [1]: binds weakly
- binding [2]: binds weakly
- binding [3]: binds weakly
B1: Glutathione-S-transferase (GST)-tagged D14L (receptor, rice (Oryza sativa), UniProt Q10J20 1-271, looked up)
chain: MGIVEEAHNLRVVGEGKRGVIVLAHGFGTDQSVWKHLVPHLVADYRVVLFDTMGAGPTNPDYFDFSRYATLEGYALDLLAILQELRVASCIYVGHSVSAVIGAIASISRPDLFSKLVLLSASPRYLNDVDYYGGFEQEDLDELFEAMGSNYKAWCSGFAPLCVGGDMESVAVQEFSRTLFNIRPDIALSVAQTIFQSDVRSLLPLVTVPCHIVQSTKDLAVPVVVSEYLHKHLGGDSIVEVMPSEGHLPQLSSPDIVIPVLLRHIQHDIAV
